Results deposited as PubChem BioAssay AID1259254 (NCATS, 2017)
Purpose: 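Genome-wide screen for genes that prevent DNA re-replication in cancer cells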 (primary screen). System: human HCT116 colorectal cancer cells. Reagents: single siRNA against human genes. Time to read-out: 3 days. Read-out: 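Imaged Hoechst DNA stain sorts each cell into a cycle phase by DNA amount; per plate, G2 fraction set to 0% for non-targeting and 100% for GMNN siRNA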. Direction: G2 robust z-score and G2 cells, % of GMNN control: higher = more G2 cells, more excess DNA replication. Hit rule: 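Active siRNAs have a G2 robust z of 5 or more median absolute deviations over the median, which in these data means about 38% or higher of GMNN control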.
The deposit covers about 59,000 reagents; shown is an unselected part. About 1,550 of them (2.6%) were called active. 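G2 share is only a proxy for re-replication; each gene was hit by three separate siRNAs, and active genes were retested.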 The numbers tell different reagents against one gene apart. Not all columns of the deposit are shown. The record does not give: the amount of reagent.

How did the screen score GSTZ1 #1?
G2 robust z-score: -0.644; G2 cells, % of GMNN control: -1.56; call: inactive

What did the screen give for GSTZ1 #2?
G2 robust z-score: 0.868; G2 cells, % of GMNN control: 9.07; call: inactive

With GSTZ1 #3, what does the deposit list?
G2 robust z-score: -0.736; G2 cells, % of GMNN control: -2.21; call: inactive

Which result is listed for CFAP298 #1?
G2 robust z-score: 0.0259; G2 cells, % of GMNN control: 3.15; call: inactive

For CFAP298 #2, what was measured?
G2 robust z-score: 0.201; G2 cells, % of GMNN control: 4.38; call: inactive

What is on record for CFAP298 #3?
G2 robust z-score: 1.33; G2 cells, % of GMNN control: 12.3; call: inactive

Which result is listed for XBP1 #1?
G2 robust z-score: 0.916; G2 cells, % of GMNN control: 9.41; call: inactive

With XBP1 #2, how do the results read?
G2 robust z-score: 0.216; G2 cells, % of GMNN control: 4.49; call: inactive

With XBP1 #3, what was measured?
G2 robust z-score: -0.18; G2 cells, % of GMNN control: 1.7; call: inactive

With RPSAP20 #1, how do the results read?
G2 robust z-score: 0.14; G2 cells, % of GMNN control: 3.95; call: inactive

How did the screen score RPSAP20 #2?
G2 robust z-score: 0.38; G2 cells, % of GMNN control: 5.64; call: inactive

With RPSAP20 #3, what does the deposit list?
G2 robust z-score: 2.04; G2 cells, % of GMNN control: 17.3; call: inactive

Part of the list above, limited to “G2 robust z-score”:
XBP1 #2 = 0.216
XBP1 #3 = -0.18

Next entries follow:
With ART3 #1, what was measured?
G2 robust z-score: -0.273; G2 cells, % of GMNN control: 1.04; call: inactive

For ART3 #2, what was measured?
G2 robust z-score: 1.86; G2 cells, % of GMNN control: 16.1; call: inactive

With ART3 #3, how do the results read?
G2 robust z-score: -1.37; G2 cells, % of GMNN control: -6.64; call: inactive

Which result is listed for CACNG3 #1?
G2 robust z-score: 1.07; G2 cells, % of GMNN control: 10.5; call: inactive

With CACNG3 #2, how do the results read?
G2 robust z-score: -0.509; G2 cells, % of GMNN control: -0.612; call: inactive

For CACNG3 #3, what was measured?
G2 robust z-score: -0.64; G2 cells, % of GMNN control: -1.54; call: inactive
